No constants are given. Whether binding was seen depends on the method and setting. Binding can be weak; no strength is given.

This experiment addresses GmBEHL1 (BD-GmBEHL1, pGBKT7-GmBEHL1) (soybean (Glycine max cv. Williams 82)) (UniProt I1J8Y4). Kind of experiment: two-hybrid; Matchmaker GAL4 system, pGBKT7 and pGADT7 constructs co-transformed into S. cerevisiae AH109; growth on SD/-Ade/-His/-Leu/-Trp after 2-3 days at 30 °C.

For the substance “GmBIN2 (pGADT7-GmBIN2) (from UniProt A0A286QY50)”, the binding result is given as “binds”.

These data come from article PMC5955893.
